In US9517222B2, “Method for the treatment of senile dementia of the Alzheimer's type” (Phenomenome Discoveries Inc., priority 2007, dated 2016):
A unit is not stated for every read-out.

What was measured:
[1] = Serum ethanolamine phospholipid levels in human cohorts (dementia severity, post-mortem pathology, age) by flow-injection MS/MS
[2] = Serum ethanolamine phospholipid ratios to PtdEt 16:0/18:0 (M01) in human cohorts
[3] = serum, females, post mortem SDAT
[4] = serum, females, post mortem control

CCCCCCCC/C=C\CCCCCCCC(=O)OC(CO/C=C\CCCCCCCCCCCCCC)COP(=O)(O)OCCN (centres unmarked) [Metabolite M15, Plasmenyl 16:0/18:1]
Ratio of serum levels ([1]; AD, All to CN, Male): 0.842 | Ratio of serum levels ([1]; ADAS 5-19 to CN, Male): 0.883 | Ratio of serum levels ([1]; ADAS 20-39 to 5-19, Male): 0.917 | Ratio of serum levels ([1]; ADAS 20-39 to CN, Male): 0.810 | Ratio of serum levels ([1]; ADAS 40-70 to 5-19, Male): 0.888 | Ratio of serum levels ([1]; ADAS 40-70 to 20-39, Male): 0.968 | Ratio of serum levels ([1]; ADAS 40-70 to CN, Male): 0.784 | Serum level, Mean ([1]; Cognitive Normal, Female): 0.073 | Average serum level, Mean ([1]; Cognitive Normal, Male): 0.076 | Serum level, Mean ([1]; Post Mortem Ctl, Male): 0.045 | Serum level, Mean ([1]; Post Mortem SDAT Male): 0.029 | Ratio of serum levels ([1]; Post mortem SDAT vs Control, Male): 0.648 | Serum level, Mean ([1]; SDAT, ADAS 5-19, Female): 0.061 | Average serum level, Mean ([1]; SDAT, ADAS 5-19, Male): 0.067 | Serum level, Mean ([1]; SDAT, ADAS 20-39, Female): 0.061 | Average serum level, Mean ([1]; SDAT, ADAS 20-39, Male): 0.062 | Serum level, Mean ([1]; SDAT, ADAS 40-70, Female): 0.056 | Average serum level, Mean ([1]; SDAT, ADAS 40-70, Male): 0.060 | Serum level, Mean ([1]; SDAT_all, Female): 0.059 | Average serum level, Mean ([1]; SDAT_all, Male): 0.064 | Ratio, ADAS 5-19 to CN, Female ([1]; serum level ratio, females, ADAS 5-19 vs CN): 0.835 | Ratio, ADAS 20-39 to 5-19, Female ([1]; serum level ratio, females, ADAS 20-39 vs ADAS 5-19): 0.996 | Ratio, ADAS 20-39 to CN, Female ([1]; serum level ratio, females, ADAS 20-39 vs CN): 0.831 | Ratio, ADAS 40-70 to 5-19, Female ([1]; serum level ratio, females, ADAS 40-70 vs ADAS 5-19): 0.922 | Ratio, ADAS 40-70 to 20-39, Female ([1]; serum level ratio, females, ADAS 40-70 vs ADAS 20-39): 0.926 | Ratio, ADAS 40-70 to CN, Female ([1]; serum level ratio, females, ADAS 40-70 vs CN): 0.770 | Ratio, 50-59 vs. 40-49, Female ([1]; serum level ratio, females, age 50-59 vs 40-49): 0.864 | Ratio, 60-69 vs. 40-49, Female ([1]; serum level ratio, females, age 60-69 vs 40-49): 0.841 | Ratio, 70+ vs. 40-49, Female ([1]; serum level ratio, females, age 70+ vs 40-49): 0.871 | Ratio, AD, All to CN, Female ([1]; serum level ratio, females, all AD vs cognitively normal): 0.811 | Ratio, Autopsy AD vs. Control, Female ([1]; serum level ratio, females, autopsy AD vs control): 0.577 | Ratio, 50-59 vs. 40-49, Male ([1]; serum level ratio, males, age 50-59 vs 40-49): 0.987 | Ratio, 60-69 vs. 40-49, Male ([1]; serum level ratio, males, age 60-69 vs 40-49): 0.985 | Ratio, 70+ vs. 40-49, Male ([1]; serum level ratio, males, age 70+ vs 40-49): 1.020 | Mean serum level, Age Ctl, 30-39, Female ([1]; serum, females, age 30-39): 0.071 | Mean serum level, Age Ctl, 40-49, Female ([1]; serum, females, age 40-49): 0.079 | Mean serum level, Age Ctl, 50-59, Female ([1]; serum, females, age 50-59): 0.068 | Mean serum level, Age Ctl, 60-69, Female ([1]; serum, females, age 60-69): 0.066 | Mean serum level, Age Ctl, 70+, Female ([1]; serum, females, age 70+): 0.069 | Mean serum level, Post Mortem SDAT, Female [1, 3]: 0.034 | Mean serum level, Post Mortem Ctl, Female [1, 4]: 0.060 | Mean serum level, Age Ctl, 30-39, Male ([1]; serum, males, age 30-39): 0.085 | Mean serum level, Age Ctl, 40-49, Male ([1]; serum, males, age 40-49): 0.075 | Mean serum level, Age Ctl, 50-59, Male ([1]; serum, males, age 50-59): 0.074 | Mean serum level, Age Ctl, 60-69, Male ([1]; serum, males, age 60-69): 0.074 | Mean serum level, Age Ctl, 70+, Male ([1]; serum, males, age 70+): 0.076 | Ratio of ethanolamine phospholipid ratios to M01 between cohorts ([2]; AD, All to CN, Male): 0.803 | Ratio of ethanolamine phospholipid ratios to M01 between cohorts ([2]; ADAS 5-19 to CN, Male): 0.837 | Ratio of ethanolamine phospholipid ratios to M01 between cohorts ([2]; ADAS 20-39 to CN, Male): 0.792 | Ratio of ethanolamine phospholipid ratios to M01 between cohorts ([2]; ADAS 40-70 to CN, Male): 0.762 | Average serum ethanolamine phospholipid ratio to M01, Mean ([2]; Cognitive Normal, Male, serum): 0.682 | Average serum ethanolamine phospholipid ratio to M01, Mean ([2]; SDAT, ADAS 5-19, Male, serum): 0.571 | Average serum ethanolamine phospholipid ratio to M01, Mean ([2]; SDAT, ADAS 20-39, Male, serum): 0.541 | Average serum ethanolamine phospholipid ratio to M01, Mean ([2]; SDAT, ADAS 40-70, Male, serum): 0.520 | Average serum ethanolamine phospholipid ratio to M01, Mean ([2]; SDAT_all, Male, serum): 0.548 | Ethanolamine Phospholipid Ratio to M01, Mean, Age Ctl, 30-39, Female ([2]; human serum, females aged 30-39): 0.706 | Ethanolamine Phospholipid Ratio to M01, Mean, Age Ctl, 40-49, Female ([2]; human serum, females aged 40-49): 0.720 | Ethanolamine Phospholipid Ratio to M01, Mean, Age Ctl, 50-59, Female ([2]; human serum, females aged 50-59): 0.699 | Ratio of Ethanolamine Phospholipid Ratio to M01, 50-59 vs. 40-49, Female ([2]; human serum, females aged 50-59 vs. females aged 40-49): 0.970 | Ethanolamine Phospholipid Ratio to M01, Mean, Age Ctl, 60-69, Female ([2]; human serum, females aged 60-69): 0.560 | Ratio of Ethanolamine Phospholipid Ratio to M01, 60-69 vs. 40-49, Female ([2]; human serum, females aged 60-69 vs. females aged 40-49): 0.778 | Ethanolamine Phospholipid Ratio to M01, Mean, Age Ctl, 70+_Female ([2]; human serum, females aged 70+): 0.578 | Ratio of Ethanolamine Phospholipid Ratio to M01, 70+ vs. 40-49, Female ([2]; human serum, females aged 70+ vs. females aged 40-49): 0.802 | Ratio of Ethanolamine Phospholipid Ratio to M01, 50-59 vs. 40-49, Male ([2]; human serum, males aged 50-59 vs. males aged 40-49): 1.026 | Ratio of Ethanolamine Phospholipid Ratio to M01, 60-69 vs. 40-49, Male ([2]; human serum, males aged 60-69 vs. males aged 40-49): 0.862 | Ratio of Ethanolamine Phospholipid Ratio to M01, 70+ vs. 40-49, Male ([2]; human serum, males aged 70+ vs. males aged 40-49): 0.896 | Ratio of ethanolamine phospholipid ratio to M01, ADAS 5-19 to CN, Female ([2]; serum, females, ADAS 5-19 vs cognitive normal): 0.900 | Ratio of ethanolamine phospholipid ratio to M01, ADAS 20-39 to 5-19, Female ([2]; serum, females, ADAS 20-39 vs ADAS 5-19): 0.998 | Ratio of ethanolamine phospholipid ratio to M01, ADAS 20-39 to CN, Female ([2]; serum, females, ADAS 20-39 vs cognitive normal): 0.897 | Ratio of ethanolamine phospholipid ratio to M01, ADAS 40-70 to 5-19, Female ([2]; serum, females, ADAS 40-70 vs ADAS 5-19): 0.874 | Ratio of ethanolamine phospholipid ratio to M01, ADAS 40-70 to 20-39, Female ([2]; serum, females, ADAS 40-70 vs ADAS 20-39): 0.876 | Ratio of ethanolamine phospholipid ratio to M01, ADAS 40-70 to CN, Female ([2]; serum, females, ADAS 40-70 vs cognitive normal): 0.786 | Ethanolamine phospholipid ratio to M01, Mean, SDAT, ADAS 5-19, Female ([2]; serum, females, SDAT ADAS 5-19): 0.564 | Ethanolamine phospholipid ratio to M01, Mean, SDAT, ADAS 20-39, Female ([2]; serum, females, SDAT ADAS 20-39): 0.563 | Ethanolamine phospholipid ratio to M01, Mean, SDAT, ADAS 40-70, Female ([2]; serum, females, SDAT ADAS 40-70): 0.493 | Ratio of ethanolamine phospholipid ratio to M01, AD, All to CN, Female ([2]; serum, females, all AD vs cognitive normal): 0.860 | Ethanolamine phospholipid ratio to M01, Mean, SDAT_all Female ([2]; serum, females, all SDAT): 0.539 | Ratio of ethanolamine phospholipid ratio to M01, Autopsy AD vs. Control, Female ([2]; serum, females, autopsy AD vs post mortem control): 0.889 | Ethanolamine phospholipid ratio to M01, Mean, Cognitive Normal, Female ([2]; serum, females, cognitive normal): 0.627 | Ethanolamine phospholipid ratio to M01, Mean, Post Mortem SDAT Female [2, 3]: 0.301 | Ethanolamine phospholipid ratio to M01, Mean, Post Mortem Ctl, Female [2, 4]: 0.339 | Ratio of ethanolamine phospholipid ratio to M01, ADAS 20-39 to 5-19, Male ([2]; serum, males, SDAT ADAS 20-39 vs ADAS 5-19): 0.947 | Ratio of ethanolamine phospholipid ratio to M01, ADAS 40-70 to 5-19, Male ([2]; serum, males, SDAT ADAS 40-70 vs ADAS 5-19): 0.911 | Ratio of ethanolamine phospholipid ratio to M01, ADAS 40-70 to 20-39, Male ([2]; serum, males, SDAT ADAS 40-70 vs ADAS 20-39): 0.962 | Ethanolamine phospholipid ratio to M01, Mean, Age Ctl, 30-39, Male ([2]; serum, males, age control 30-39): 0.699 | Ethanolamine phospholipid ratio to M01, Mean, Age Ctl, 40-49, Male ([2]; serum, males, age control 40-49): 0.658 | Ethanolamine phospholipid ratio to M01, Mean, Age Ctl, 50-59, Male ([2]; serum, males, age control 50-59): 0.675 | Ethanolamine phospholipid ratio to M01, Mean, Age Ctl, 60-69, Male ([2]; serum, males, age control 60-69): 0.567 | Ethanolamine phospholipid ratio to M01, Mean, Age Ctl, 70+_Male ([2]; serum, males, age control 70+): 0.590 | Ethanolamine phospholipid ratio to M01, Mean, Post Mortem SDAT Male ([2]; serum, males, post mortem SDAT): 0.344 | Ratio of ethanolamine phospholipid ratio to M01, SDAT vs Control (post mortem, males) ([2]; serum, males, post mortem SDAT vs post mortem control): 0.918 | Ethanolamine phospholipid ratio to M01, Mean, Post Mortem Ctl, Male ([2]; serum, males, post mortem control): 0.375
